For two molecules, binding results are on record in patent publication US20090136977A1, “NOVEL TARGETS FOR ALZHEIMER'S DISEASE” (priority 2007, published 2009).

Protein sequences, listed by entry. Tags and fused reporters are not part of them. Lines headed by an entry give the natural chain unless they say otherwise; changes in a name come on top.
UniProt P56817: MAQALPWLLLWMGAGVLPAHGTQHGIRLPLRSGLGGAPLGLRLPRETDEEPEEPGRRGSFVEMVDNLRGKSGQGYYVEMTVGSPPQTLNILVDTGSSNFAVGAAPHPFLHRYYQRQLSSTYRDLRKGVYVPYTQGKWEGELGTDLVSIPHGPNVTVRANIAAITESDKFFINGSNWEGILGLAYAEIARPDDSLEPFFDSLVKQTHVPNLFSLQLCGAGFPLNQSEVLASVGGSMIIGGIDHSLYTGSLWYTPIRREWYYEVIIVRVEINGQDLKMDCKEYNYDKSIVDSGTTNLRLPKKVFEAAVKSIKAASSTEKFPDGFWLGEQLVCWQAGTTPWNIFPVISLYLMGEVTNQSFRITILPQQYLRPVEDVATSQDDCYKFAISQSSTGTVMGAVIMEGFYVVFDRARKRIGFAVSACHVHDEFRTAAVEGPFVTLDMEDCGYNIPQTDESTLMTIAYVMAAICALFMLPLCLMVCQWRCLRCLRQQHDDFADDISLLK

In assay [1] the target is endogenous BACE1, mature fully-glycosylated form (form 3). Briefly: anti-myc affinity purification of ATase1-myc from cell lysates, Western blot with anti-BACE1 (FIG. 6A).
The target in assay [2] is affinity purified BACE1 (BACE1-myc, wild type) (UniProt P56817). The experiment in a line: co-incubation of the purified proteins, immunoprecipitation of BACE1 with an anti-BACE1 N-terminal antibody, Western blot (FIG. 3B).
Assay [3] has the same target. The experiment in a line: co-immunoprecipitation after co-incubation of the purified proteins in vitro (FIG. 3B).
For assay [4] the target is unchanged. The experiment in a line: co-incubation of the purified proteins, immunoprecipitation of BACE1 with an anti-BACE1 N-terminal antibody, Western blot with anti-myc (FIG. 5A).
Assay [5] concerns the target endogenous BACE1, mature fully-glycosylated form (form 3). The experiment in a line: anti-myc affinity purification of ATase2-myc from cell lysates, Western blot with anti-BACE1 (FIG. 6A).
The target of assay [6] is affinity purified BACE1 (BACE1-myc, wild type) (UniProt P56817). Briefly: co-immunoprecipitation after co-incubation of the purified proteins in vitro (FIG. 5A).

These are yes or no findings as the source states them, for the method shown. For part of these data: Binding calls can cover weak binding; strength is not graded here. Tags and fused reporters may be left off the sequences shown. For part of these data: Binding seen in cells or lysates may run through a third protein.

B1: ATase1 (acetyltransferase 1) with a myc tag at the C-terminus (enzyme, not shown: small tags and cut ends)
chain: MAPYHIRKYQESDRKSVVGLLSRGMAEHAPATFRRLLKLPRTLILLLGGALALLLVSGSWILALVFSLSLLPALWFLAKKPWTRYVDIALRTDMSDITKSYLSECGSCFWVGESEEKVVGTVGALPVDDPTLREKRLQLFHLSVDNEHRGQGIAKALVRTVLQFARDQGYSEVVLDTSNIQLSAMGLYQSLGFKKTGQSFFHVWARLVDLHTVHFIYHLPSAQAGRL
B1: the binding entry in assay [1] was “no binding”; in assay [2], “binds”; in assay [3], “binds”.

B2: ATase2 (acetyltransferase 2) with a myc tag at the C-terminus (enzyme, not shown: small tags and cut ends)
chain: MAPCHIRKYQESDRQWVVGLLSRGMAEHAPATFRQLLKLPRTLILLLGGPLALLLVSGSWLLALVFSISLFPALWFLAKKPWTEYVDMTLCTDMSDITKSYLSERGSCFWVAESEEKVVGMVGALPVDDPTLREKRLQLFHLFVDSEHRRQGIAKALVRTVLQFARDQGYSEVILDTGTIQLSAMALYQSMGFKKTGQSFFCVWARLVALHTVHFIYHLPSSKVGSL
For B2, the binding entry is “binds” in assay [4], “no binding” in assay [5] and “binds” in assay [6].
